Some entries share one result that the patent states for a list of compounds.
System: rat or human 5-HT2C clones expressed in 293 cells
Assay: [3H]-mesulergine binding to rat or human 5-HT2C clones expressed in 293 cells in vitro
Details: rat or human 5-HT2C clones in 293 cells, procedure of WO 94/04533

Structure (SMILES) | pKi
COc1cc2occ(C(=O)Nc3cccnc3)c2cc1Br [Example 3, 5-Bromo-6-methoxy-N-(3-pyridyl)benzo[b]furan-3-carboxamide] | at least 7.2
COc1cc2occ(C(=O)Nc3cccnc3)c2cc1C(F)(F)F [Example 4, 6-Methoxy-N-(3-pyridyl)-5-trifluoromethylbenzo[b]furan-3-carboxamide] | at least 7.2
COc1cc2[nH]cc(C(=O)Nc3cccnc3)c2cc1Br [Example 5, 5-Bromo-6-methoxy-N-(3-pyridyl)indole-3-carboxamide] | at least 7.2
COc1cc2c(cc1C(F)(F)F)c(C(=O)Nc1cccnc1)cn2C [Example 6, 6-Methoxy-1-methyl-N-(3-pyridyl)-5-trifluoromethylindole-3-carboxamide] | at least 7.2
Cc1cc2scc(C(=O)Nc3cccnc3)c2cc1Cl.Cl [Example 7, 5-Chloro-6-methyl-N-(3-pyridyl)benzo [b] thiophene-3-carboxamide hydrochloride] | at least 7.2
CSc1cc2ccn(C(=O)Nc3cccnc3)c2cc1C(F)(F)F [Example 8, 5-Thiomethyl-6-trifluoromethyl-1-(3-pyridylcarbamoyl)-indole] | at least 7.2
